Consider one molecule from article PMC10216065.

This experiment deals with E. coli SufE (E. coli) (UniProt P76194). Description: cross-linking; disulfide-linked species without H2O2; SDS-PAGE under reducing (+DTT) and non-reducing (-DTT) conditions; both purified.

These are yes or no findings as the source states them, for the method shown.

B1: E. coli SufE (protein, UniProt P76194 1-138)
chain: MALLPDKEKLLRNFLRCANWEEKYLYIIELGQRLPELRDEDRSPQNSIQGCQSQVWIVMRQNAQGIIELQGDSDAAIVKGLIAVVFILYDQMTPQDIVNFDVRPWFEKMALTQHLTPSRSQGLEAMIRAIRAKAAALS
As for B1, the binding entry was “no binding (condition: without H2O2)”.
